At least one compound was matched to its structure with a doubt left.
Test system: human penis
Experiment: Permanent increase in erect penis length and girth after repeated intracavernosal vasodilator treatment of male patients
Type: in vivo
Conditions: Example 1: remained stable for two years after discontinuation
Description: The term “penis length” refers to the maximum length of the penis, as measured along the dorsal surface of the penis from the symphysis pubis to the tip or end of the glans penis when the glans penis is pulled manually and put under tension. Preferably, the measurement is taken when the penis is fully erect.
The term “penis girth” refers to the largest measured value obtained for circumference of the erect penis, as measured in the midshaft region (middle third). Preferably, the measurement is taken when the penis is fully erect.
An engorgement is deemed “cumulative prolonged” when an erectile response lasts for at least 3 hours over a 24 hours period. […]
A patient was treated with intracavernosal injections of a vasodilator, prostaglandin E1, on a regular basis (approximately four to five times per week) over an 18 month treatment period. […] The quantity of medication was adjusted from time to time in accordance with the patient's response, which was monitored at least weekly. […]
A patient was treated with intracavernosal injections of a quadruple mix of the vasodilators prostaglandin E1, Atropine, Chlorpromazine and Papavarine on a regular basis (approximately two to four times per week) over a 4-month treatment period. […] The quantity of medication was adjusted in accordance with the patient's response. […]

CCCCC[C@H](O)/C=C/[C@H]1[C@H](O)CC(=O)[C@@H]1CCCCCCC(=O)O [prostaglandin E1]
erect penis length after discontinuation of treatment: over 8½ inches

Reference: patent publication US7671091B2, “Penis enlargement” (priority 2004, dated 2010)
